Measured values reported in publication PMC7819943, “Rice protein-binding microarrays: a tool to detect cis-acting elements near promoter regions in rice”.
This is one part of the list.

Chains of the proteins cited; added tags and fusions are not shown.
UniProt Q0JBA9, entry or part of it: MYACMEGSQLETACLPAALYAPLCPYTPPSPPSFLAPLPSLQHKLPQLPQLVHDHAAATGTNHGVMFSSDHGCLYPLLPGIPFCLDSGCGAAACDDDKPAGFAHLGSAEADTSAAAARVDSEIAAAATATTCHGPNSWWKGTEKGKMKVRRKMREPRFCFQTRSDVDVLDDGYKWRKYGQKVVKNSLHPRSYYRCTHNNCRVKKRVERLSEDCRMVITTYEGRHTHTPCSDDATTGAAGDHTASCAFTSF

target: OsWRKY34 (Oryza sativa, UniProt Q0JBA9 1-250); experiment: protein-binding microarray (RPBM); PBS, 2% BSA, 51.3 ng/ul salmon testes DNA, 50 uM zinc acetate, 200 nM TF, 25 C, 1 h; high values mean tight binding; conditions: protein: recombinant; tags: N-terminal polyhistidine and DsRed monomer fusion (pET32a); label: CyDye5-dUTP incorporated in the synthesized complementary strand; 3' TTTTT single-stranded linker to array surface; dsDNA, one strand shown
How it was run: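 Transcription factors were made in E. coli BL21-CodonPlus as N-terminal fusions to a polyhistidine tag and DsRed, then purified on Ni–NTA. After primer extension with Cy5-dUTP and blocking with 2% BSA, a custom Agilent array was exposed for 1 h at 25 °C to 200 nM protein in PBS, 2% BSA, salmon testes DNA and 50 µM zinc acetate. Washed arrays were scanned on an Axon 4000B, and the binding signal is per-feature fluorescence intensity in arbitrary units.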

| Sequence | binding signal |
| --- | --- |
| GTGGTCTGCTTGCTTTTGGTCCTATCCTTTGTAGTCAAGACGGAGTCACCTAGTGCAG | 9570 fluorescence intensity (a.u.) |
| TCGGGCGTTGTTTGACCGAAGTTGACCGTCTACGTGGCATCGGAGTCACCTAGTGCAG | 11500 fluorescence intensity (a.u.) |
| GTGGCCAGCCATCCCATCCGGATTTCGAATTTACTCCCTTCGGAGTCACCTAGTGCAG | 8600 fluorescence intensity (a.u.) |
| TAGCAAAATTTTCCTTGTTTTTAGGTTGACCATCTGTTTTCGGAGTCACCTAGTGCAG | 9380 fluorescence intensity (a.u.) |
| CCTCGTATGTCATGTTGTCTGGATCATCGTTATCATCCTGCGGAGTCACCTAGTGCAG | 9710 fluorescence intensity (a.u.) |
| CTCCCGAATCGCCTCTCGCGTCGCCCTCTCGTGACGTCATCGGAGTCACCTAGTGCAG | 8470 fluorescence intensity (a.u.) |
| GGTCGTGCAGCTCCGGCCGCCGCTCTCTCGCCTGCCGCCGCGGAGTCACCTAGTGCAG | 8560 fluorescence intensity (a.u.) |
| ATTTTGCTTGTGTGGATCTATTTCTCCATTCTGTGGATATCGGAGTCACCTAGTGCAG | 11300 fluorescence intensity (a.u.) |
| CCGTCGCCGGCGGCGGATCGGCCCCACATCACCTCGGCCTCGGAGTCACCTAGTGCAG | 8410 fluorescence intensity (a.u.) |
| ACCAATTTCTCCATTCCTCACATATTTGCAGCCTTTAACACGGAGTCACCTAGTGCAG | 9320 fluorescence intensity (a.u.) |
| TAATATTTACATTTCTCGATGCCCATGTAGCTAATCTTGTCGGAGTCACCTAGTGCAG | 10800 fluorescence intensity (a.u.) |
| CTGAATGGTGACACATACCCACCCAGACCCGCATCTGTCTCGGAGTCACCTAGTGCAG | 8500 fluorescence intensity (a.u.) |
| ACACTACTCTTCTTCGTTCTTCCACATGGAAGCCAAGCTACGGAGTCACCTAGTGCAG | 8300 fluorescence intensity (a.u.) |
| TGTTCTTTCTCCTTGTGTAGTTGTGTGGTGTGGTTGAGCTCGGAGTCACCTAGTGCAG | 8970 fluorescence intensity (a.u.) |
| TTGTGCTCTTCATCGGCGCCAGCTTTAGCTTCTTCCTCATCGGAGTCACCTAGTGCAG | 10500 fluorescence intensity (a.u.) |
| CTACTGCTCTACTACATCCTACTCCTAACTCCCACCTAATCGGAGTCACCTAGTGCAG | 8740 fluorescence intensity (a.u.) |
| CGCCTAGTGCCGTGATCCTCTTTCGCCGCCGCCGCCGATGCGGAGTCACCTAGTGCAG | 9320 fluorescence intensity (a.u.) |
| CCCTCCGTTTTCATATTATAAGTCGTGTGACACTTTTCTTCGGAGTCACCTAGTGCAG | 8800 fluorescence intensity (a.u.) |
| CCACACACACATAGTTGACATACACATCAACACATGTACACGGAGTCACCTAGTGCAG | 8240 fluorescence intensity (a.u.) |
| CTGTGCTGAGCCAAACCCATCCTTGCTTGCTCATGTCATCCGGAGTCACCTAGTGCAG | 9400 fluorescence intensity (a.u.) |
| CTTCGGAGTTCAGACTGCTCGCTATCTTGCTGTCATTTTACGGAGTCACCTAGTGCAG | 8170 fluorescence intensity (a.u.) |
| AGGCGGGGTGGTGGAATCCTCGTCCCTCGCCTACTTTTTGCGGAGTCACCTAGTGCAG | 8050 fluorescence intensity (a.u.) |
| CCATACCTTTGGGCCGGCCCAGACTCCGTCCACTTGCACGCGGAGTCACCTAGTGCAG | 9530 fluorescence intensity (a.u.) |
| CCGAAACAACACACAGGTCATCCGGCCGCTCTCTTCTTTGCGGAGTCACCTAGTGCAG | 9170 fluorescence intensity (a.u.) |
| ACTAGGGGTTACTTGCGTATCTACAGTTGACTTTAACTCCCGGAGTCACCTAGTGCAG | 9870 fluorescence intensity (a.u.) |
| GCGAGGTGGGTCCTTCTCAGTTCAAATCTATCTCGCTGACCGGAGTCACCTAGTGCAG | 8730 fluorescence intensity (a.u.) |
| AATATGCCTATTAAAAATAAAATTTTCAGATTTAAAAATACGGAGTCACCTAGTGCAG | 12100 fluorescence intensity (a.u.) |

| Sequence | binding signal |
| --- | --- |
| GAGATAGATGGGCCTGAAATGCGCCGATGGTCAGGCCTGCCGGAGTCACCTAGTGCAG | 8190 fluorescence intensity (a.u.) |
| TCCCGAATCTTGCGCGATCGGATCCGCGTCGTCTGAACTCCGGAGTCACCTAGTGCAG | 8310 fluorescence intensity (a.u.) |
| GATTTTTGCGCTTCTTGTGTTCGTGAACCTATCACGCCGCCGGAGTCACCTAGTGCAG | 8070 fluorescence intensity (a.u.) |
| ACAAACCAATTTTTACATATGGACCGCTTAAGAGCCCGGTCGGAGTCACCTAGTGCAG | 8180 fluorescence intensity (a.u.) |
| CGGTAGGCGTACGTGGAGACCGGTGGAATTCGTCAAAACCCGGAGTCACCTAGTGCAG | 55000 fluorescence intensity (a.u.) |
| TCTCCGTCCCCATCACCCTCGCAATTACTCCACCCGCCGGCGGAGTCACCTAGTGCAG | 9290 fluorescence intensity (a.u.) |
| TAGAGTGGTTGGTTGGGTACTTGGGTTGGGTTGGGTGGTCCGGAGTCACCTAGTGCAG | 24300 fluorescence intensity (a.u.) |
| TATAAGACACGAGAAACCTTTGCAAGCCATTCGCTTTTTTCGGAGTCACCTAGTGCAG | 8200 fluorescence intensity (a.u.) |
| TAATAAGATTTTTTTTCATGGTCATATGATTTCCACGTGTCGGAGTCACCTAGTGCAG | 8500 fluorescence intensity (a.u.) |
| GCCCTGACTATCATAGCCACATCTCTATAATAGACAAACTCGGAGTCACCTAGTGCAG | 8340 fluorescence intensity (a.u.) |
| TTCGAACGGTCAACGCGGCCAGGTGCATGTTGTTAGTATTCGGAGTCACCTAGTGCAG | 8230 fluorescence intensity (a.u.) |
| GCCACGTCACTGCCGGCCAGATTACTTGTCCCATGCAGCTCGGAGTCACCTAGTGCAG | 8780 fluorescence intensity (a.u.) |
| CGTCGGCTCCCCGTGTACCCATCAATCCGTCACCGTCTTTCGGAGTCACCTAGTGCAG | 11000 fluorescence intensity (a.u.) |
| CGTGGGTCATTTTTTGTGTCTGTGAGCTTATCTTCTTGTCCGGAGTCACCTAGTGCAG | 8160 fluorescence intensity (a.u.) |
| GGAGGGAGTAGTATATTGGGGATTTTCAGTTGGGTCTGGGCGGAGTCACCTAGTGCAG | 14200 fluorescence intensity (a.u.) |
| CCACCACTACACACTCCACTCCATTTCCCACTCGACTCCACGGAGTCACCTAGTGCAG | 10500 fluorescence intensity (a.u.) |
| CGGGATACTCAAGGGGTTCGTGGGGCTCAGCGGCGCCGTGCGGAGTCACCTAGTGCAG | 9340 fluorescence intensity (a.u.) |
| CGGAGTTCTTCGTGGGCCTCGATCTACCGGCCTTCGCCTTCGGAGTCACCTAGTGCAG | 8870 fluorescence intensity (a.u.) |
| GACGGAATTTCTTCCGCCTAGGTCTCCCGGCGCCGACCTCCGGAGTCACCTAGTGCAG | 8170 fluorescence intensity (a.u.) |
| AAACCACGGCATTTTCCTCGCTCCCTTCTCTTCTTCCTTTCGGAGTCACCTAGTGCAG | 8750 fluorescence intensity (a.u.) |
| GTCTCTCACTCTCTCTTTCTCTCTCGACCACCACTACCACCGGAGTCACCTAGTGCAG | 9000 fluorescence intensity (a.u.) |
| TCCATCCATCCATCTCTCCTGCAGCTGCAGTGCAGGCGAGCGGAGTCACCTAGTGCAG | 8380 fluorescence intensity (a.u.) |
| ATCTTTTTGTTGTCTTTGAATTCAGTCTGTTTTTCTCATTCGGAGTCACCTAGTGCAG | 17900 fluorescence intensity (a.u.) |
| TGGGAGATGGGGATGGTGGCTGGCAGGTGGGGCCAATGGTCGGAGTCACCTAGTGCAG | 11000 fluorescence intensity (a.u.) |
| GCTTTCACCTGCCACCTACTCCACCTAACAAACACTACTCCGGAGTCACCTAGTGCAG | 8860 fluorescence intensity (a.u.) |
| TGCCAGCACAAATCTCGAAGCACATCCAATGATCCAAGACCGGAGTCACCTAGTGCAG | 9540 fluorescence intensity (a.u.) |
| ACTCCCTCGTCATTTCCTTCCCTAGACCCCTTCTCACGCCCGGAGTCACCTAGTGCAG | 8830 fluorescence intensity (a.u.) |

Individual results from the list.
CTGAATGGTGACACATACCCACCCAGACCCGCATCTGTCTCGGAGTCACCTAGTGCAG – binding signal: 8500 fluorescence intensity (a.u.)
TCTCCGTCCCCATCACCCTCGCAATTACTCCACCCGCCGGCGGAGTCACCTAGTGCAG – binding signal: 9290 fluorescence intensity (a.u.)
CCACCACTACACACTCCACTCCATTTCCCACTCGACTCCACGGAGTCACCTAGTGCAG – binding signal: 10500 fluorescence intensity (a.u.)
CGTCGGCTCCCCGTGTACCCATCAATCCGTCACCGTCTTTCGGAGTCACCTAGTGCAG – binding signal: 11000 fluorescence intensity (a.u.)
